Reference: paper PMC5641942 (Physiological Reports, 2017)

System: Caco-2 cell monolayers
Assay: Barrier properties of Caco-2 cell monolayers: mannitol permeability and TEER
Conditions: for TEER After: after 120 min experiment; for TEER Before: before experiment
[1] = A–B transport pH 6.0/7.4, 20 mg/mL test substance
[2] = A–B transport pH 7.4/7.4, 20 mg/mL test substance

Compound	TEER After [1]	TEER Before [1]	TEER After [2]	TEER Before [2]
NC1(C(=O)O)CC2CCC1C2 (stereo not drawn) [BCH, 2‐Amino‐2‐norbornanecarboxylic acid]	349 ± 57 Ω·cm^2	491 ± 54 Ω·cm^2	299 ± 28 Ω·cm^2	512 ± 40 Ω·cm^2
O=C(O)[C@@H]1CCCN1 [Pro, L‐proline]	354 ± 56 Ω·cm^2	509 ± 64 Ω·cm^2	135 ± 23 Ω·cm^2	486 ± 62 Ω·cm^2
CNCC(=O)O [Sar, sarcosine]	401 ± 69 Ω·cm^2	514 ± 54 Ω·cm^2	171 ± 53 Ω·cm^2	467 ± 48 Ω·cm^2
